Screening data, single-dose tests

Protein sequences, listed by entry. Tags and fused reporters are not part of them. Residues count along the entry.
UniProt P9WNZ1, whole entry: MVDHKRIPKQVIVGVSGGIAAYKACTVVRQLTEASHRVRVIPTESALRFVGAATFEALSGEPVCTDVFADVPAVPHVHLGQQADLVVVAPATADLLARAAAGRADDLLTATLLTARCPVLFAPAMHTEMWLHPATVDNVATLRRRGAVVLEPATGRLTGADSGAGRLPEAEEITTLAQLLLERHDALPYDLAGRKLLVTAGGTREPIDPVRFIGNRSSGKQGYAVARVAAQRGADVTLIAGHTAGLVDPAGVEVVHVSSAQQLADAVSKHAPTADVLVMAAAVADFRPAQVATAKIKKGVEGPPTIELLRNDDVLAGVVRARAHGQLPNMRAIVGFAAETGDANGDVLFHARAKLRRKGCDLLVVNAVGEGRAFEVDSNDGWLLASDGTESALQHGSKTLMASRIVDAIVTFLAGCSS
UniProt A4I591, 1-473: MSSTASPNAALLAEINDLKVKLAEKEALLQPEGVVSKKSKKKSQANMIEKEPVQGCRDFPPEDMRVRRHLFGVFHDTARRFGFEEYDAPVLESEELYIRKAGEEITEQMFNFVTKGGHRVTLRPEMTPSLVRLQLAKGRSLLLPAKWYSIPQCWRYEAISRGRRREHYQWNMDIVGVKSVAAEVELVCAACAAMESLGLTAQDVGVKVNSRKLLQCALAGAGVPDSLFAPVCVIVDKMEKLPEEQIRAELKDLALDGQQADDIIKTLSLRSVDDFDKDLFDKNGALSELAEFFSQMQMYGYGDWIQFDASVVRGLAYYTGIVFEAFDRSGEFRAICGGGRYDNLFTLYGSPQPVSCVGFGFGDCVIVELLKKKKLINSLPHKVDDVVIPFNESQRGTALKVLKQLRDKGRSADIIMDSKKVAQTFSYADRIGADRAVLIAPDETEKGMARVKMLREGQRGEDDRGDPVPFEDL

Measurements from “University of Dundee, Small-Polar-MMV Screening Library” (2021), ChEMBL document CHEMBL3988442.

Results are given as percent effect. The record does not define 0% and 100%; most values in the screen are far below 50% and negative numbers occur (in some assays of this library far below -100). This is an unselected part of the compounds tested. Two or more numbers in one place are separate tests of the same structure; such repeats can differ widely.

CoaBC: 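Enzyme assay of CoaBC with a phosphate dye (Biomol Green) read at 650 nm. Target: Coenzyme A biosynthesis protein CoaBC, Mycobacterium tuberculosis (UniProt P9WNZ1). Compounds at 30 µM. Direction is inferred from only a few compounds that gave an IC50; most scored high, so higher reads as stronger inhibition. Most strong results did not repeat in a second test. Size under these conditions: about 67,000 compounds, about 40 of them at 50% or above in at least one test.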
LiHisRS: 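Histidine-tRNA ligase, Leishmania infantum (UniProt A4I591). Enzyme assay of histidyl-tRNA synthetase; the read-out is not stated. Tested at 30 µM. The record gives no direction; compounds that gave an IC50 in retests scored well above the rest, so higher reads as stronger inhibition. The assay is labelled LdHisRS but filed under L. infantum. About 69,000 compounds were tested under these conditions; 0.6% (about 410) showed 50% or more at least once.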
Leishmania in macrophages: 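Cell assay of Leishmania donovani living inside macrophages; the read-out is not stated. Tested at 30 µM. Higher reads as stronger inhibition (inferred: compounds with an IC50 in retests scored well above the rest). Size under these conditions: about 69,000 compounds, about 1,000 of them at 50% or above in at least one test.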

CC(=O)N1[C@H](Cn2cncn2)C[C@@H]2CN(Cc3nccs3)CC[C@@H]21 read CoaBC: -5.484%; LiHisRS: -2.778%.
COCC(=O)NC1CC2(CCN(CC3CC3)CC2)Oc2ccccc21 (stereo not drawn) read CoaBC: 0.3861%; LiHisRS: 15.38%.
COc1ccc(Cn2c(Cc3c(C)n[nH]c3C)n[nH]c2=O)cc1 read CoaBC: 11.33%; LiHisRS: 12%; Leishmania in macrophages: -15.03%.
[H][C@@]12COC[C@@H](Cc3nc(C)no3)[C@]1([H])CN(S(=O)(=O)C1CC1)C2 read Leishmania in macrophages: 16.7%.
COc1ccc(CNCCc2cccc(C(N)=O)c2)cc1O read CoaBC: 5.556%; LiHisRS: 13.39%; Leishmania in macrophages: -5.786%.
CN(c1ncnc2c1cnn2C)C1CCCN(c2cccnn2)C1 (stereo not drawn) read CoaBC: 3.912%; LiHisRS: 8.065%; Leishmania in macrophages: -4.796%.
O=C(O)C(F)(F)F.[H][C@]12CCC[C@@]1(COc1ccccn1)CN(C(=O)c1c(C)noc1C)C2 read Leishmania in macrophages: 32.3%.
Cc1ccnc(C2CCN(c3ccnc(C)n3)C2)n1 (stereo not drawn) read CoaBC: -2.628%; LiHisRS: 11.59%; Leishmania in macrophages: 43.47%.
Cc1nc2c(C)cccc2cc1C(=O)N1CCC2(CCCNC2)C1 (stereo not drawn) read CoaBC: 1.392%; LiHisRS: 3.614%; Leishmania in macrophages: -19.95%.
COCC(=O)N1Cc2c(-c3cccc(C)c3)nc(N)nc2C1C (stereo not drawn) read CoaBC: 2.123%; LiHisRS: 18.68%; Leishmania in macrophages: 16.81%.
Cc1ccccc1C(NC(=O)CCCS(C)(=O)=O)C(C)(C)C (stereo not drawn) read CoaBC: -0.7299%; LiHisRS: 20%; Leishmania in macrophages: 34.22%.
O=C1N(CCO)CCCC12CCN(Cc1nnc(C3CC3)o1)C2 (stereo not drawn) read CoaBC: -2.76%; LiHisRS: 20.35%; Leishmania in macrophages: 28.96%.
Cc1ccnn1CCC(=O)N1CCCC1c1cc2cccnc2[nH]1 (stereo not drawn) read CoaBC: -9.202%; LiHisRS: 15.6%.
Cc1nc(C)n(C2CCCN(C(=O)c3ccccc3C)C2)n1 (stereo not drawn) read CoaBC: 1.026%; LiHisRS: 16%; Leishmania in macrophages: 5.727%.
COCC(=O)N1CCn2c(COc3cccnc3)cnc2C1C (stereo not drawn) read CoaBC: 4.762%; LiHisRS: 25.64%.
O=C(Cc1ccc2c(c1)CCO2)Nc1ccc(-n2cncn2)nc1 read CoaBC: -1.681%; LiHisRS: -0.8547%; Leishmania in macrophages: 5.026%.
CCCc1nc(CN2CCCC(c3noc(C4CC4)n3)C2)no1 (stereo not drawn) read CoaBC: -3.609%; LiHisRS: 11.4%; Leishmania in macrophages: 9.332%.
CC(NC(=O)NCCCn1ccnc1)c1nncn1C (stereo not drawn) read CoaBC: -5.166%; LiHisRS: 14.16%; Leishmania in macrophages: 16.77%.
CN1CCN(C(=O)c2cc3c(s2)CCN3C(=O)C2CC2)CC1 read CoaBC: 1.426%; LiHisRS: 15.79%; Leishmania in macrophages: 7.568%.
NC(=O)c1cnn2c1NCC(CNCC1(c3ccccc3)CCCC1)C2 (stereo not drawn) read CoaBC: 2.427%; LiHisRS: 30.95%; Leishmania in macrophages: 18.12%.
Cc1ccc(CN(C)C(=O)c2cc(Cn3ccnc3C(C)C)[nH]n2)o1 read CoaBC: -3.053%; LiHisRS: 7.692%; Leishmania in macrophages: 35.46% & -17.19%.
O=C(NCc1nc(C2CC2)no1)N1CCOC(c2cccc(F)c2)C1 (stereo not drawn) read CoaBC: 0.8537%; LiHisRS: 4.396%; Leishmania in macrophages: 22.08%.
O=C(c1cc[nH]n1)N1CC[C@@H]2CN(Cc3ccccc3)S(=O)(=O)[C@@H]2CC1 read CoaBC: -64.48%; LiHisRS: -280.7%.